Laboratory results from patent US8216786B2, “Genetic polymorphisms associated with cardiovascular diseases, methods of detection and uses thereof” (Celera Corporation, priority 2008, dated 2012).
Further values from the same series stand in other lists.

Test system: individuals who have previously had an MI
Assay: CARE trial: effect of pravastatin vs placebo on coronary events (endpt1, rmi) by SNP genotype subgroup
Type: in vivo, human
Settings: endpt1
Protocol: In Tables 21-22, the column labeled “Endpoint” indicates whether the endpoint that was analyzed was the primary endpoint of the CARE study (a composite endpoint of fatal coronary event or nonfatal MI, and identified as “endpt1”) or a composite endpoint of confirmed fatal or nonfatal MI (identified as “rmi”). […] As used herein, the term “benefit” (with respect to a preventive or therapeutic drug treatment) is defined as achieving a reduced risk for a disease that the drug is intended to treat or prevent (e.g., CVD such as CHD, particularly MI, or hypertension) by administering the drug treatment, compared with the risk for the disease in the absence of receiving the drug treatment (or receiving a placebo in lieu of the drug treatment) for the same genotype. […] J. […] (1996) New England Journal of Medicine 335: 1001-1009. […] A well-documented MI was one of the enrollment criteria for entry into the CARE study. Patients were enrolled in the CARE trial from 80 participating study centers. […] For the study of CARE described in this Example and shown in Tables 21-22, two endpoints were investigated: the primary endpoint of CARE (a composite endpoint of fatal coronary event or nonfatal MI, and identified as “endpt1” in the Endpoint column of Tables 21-22) and a composite endpoint of confirmed fatal or nonfatal MI (identified as “rmi” in the Endpoint column of Tables 21-22). […] HR stands for Hazard Ratio, which is a concept similar to Odds Ratio (OR). The HR in event-free survival analysis is the effect of an explanatory variable on the hazard or risk of an event. […] In Table 21, p-interaction values were calculated. An interaction (or effect modification) is formed when a third variable modifies the relation between an exposure and outcome. […] Genotype and drug interaction is present when the effect of statins (incidence rate of disease in statin-treated group, as compared to placebo) differs in patients with different genotypes.

[1] = hCV15851335 rs17610395 CPT1A, Strata TC + TT
[2] = hCV15851779 rs2230009 WRN, Strata AA
[3] = hCV15851779 rs2230009 WRN, Strata AG
[4] = hCV15851779 rs2230009 WRN, Strata GG
[5] = hCV15870728 rs2943245 C10orf64, strata CC
[6] = hCV15876011 rs2228541 SERPINA6, Strata GG
[7] = hCV15876011 rs2228541 SERPINA6, Strata GT + TT
[8] = hCV15954277 rs2236379 PRKCQ, Strata AA
[9] = hCV15954277 rs2236379 PRKCQ, Strata AG + GG
[10] = hCV15955388 rs2227376 F2RL3, Strata CC
[11] = hCV15955388 rs2227376 F2RL3, Strata TC + TT
[12] = hCV15963535 rs2228591 NCOA2, Strata CC
[13] = hCV15963535 rs2228591 NCOA2, Strata GC + GG
[14] = hCV16044337 rs2569491 KLK14, Strata AA
[15] = hCV16044337 rs2569491 KLK14, Strata AG + GG
[16] = hCV16047108 rs2244008 LAMA2, Strata AA
[17] = hCV16047108 rs2244008 LAMA2, Strata GA + GG
[18] = hCV16172339 rs2229489 HSPG2, Strata PA
[19] = hCV16172339 rs2229489 HSPG2, Strata TA + TT
[20] = hCV16173091 rs2241883 FABP1, Strata CC
[21] = hCV16173091 rs2241883 FABP1, Strata CT + TT
[22] = hCV16179493 rs2106622 CYP4F2, Strata CC
[23] = hCV16179493 rs2108622 CYP4F2, Strata TC + TT
[24] = hCV16179628 rs2273697 ABCC2, Strata AA
[25] = hCV16179628 rs2273697 ABCC2, Strata AG + GG
[26] = hCV16182835 rs2274736 PTPN21, Strata AA
[27] = hCV16182835 rs2274736 PTPN21, Strata GA + GG
[28] = hCV16192174 rs2305948 KDR, Strata AG + AA
[29] = hCV16192174 rs2305948 KDR, Strata GG
[30] = hCV22271999 rs2305946 KDR, Strata TC + TT
[31] = hCV22271999 rs2305948 KDR, Strata CC
[32] = hCV22274761 rs11575194 IGFBP5, Strata AG + AA
[33] = hCV22274761 rs11575194 IGFBP5, Strata GG
[34] = hCV22275550 rs6836335 SPON2, Strata CC
[35] = hCV22275550 rs6836335 SPON2, Strata CT + TT
[36] = hCV25472345 rs4900072 C14orf159, Strata TC + CC
[37] = hCV25472345 rs4900072 C14orf159, Strata TT
[38] = hCV25472673 rs1805081 NPC1, Strata CT + CC
[39] = hCV25472673 rs1805081 NPC1, Strata TT
[40] = hCV25473098 rs2241883 FABP1, Strata GA + AA
[41] = hCV25473098 rs2241883 FABP1, Strata GG
[42] = hCV25474101 rs41554412 MICA, Strata CC
[43] = hCV25474101 rs41554412 MICA, Strata CT + TT
[44] = hCV25591528 CD163, Strata AG + AA
[45] = hCV25596880 rs4647297 CASP2, Strata CC
[46] = hCV25596880 rs4647297 CASP2, Strata CG
[47] = hCV25596880 rs4647297 CASP2, Strata GG
[48] = hCV25598594 rs41274768 CR1, Strata AG + AA
[49] = hCV25598594 rs41274768 CR1, Strata GG
[50] = hCV25603879 rs11542844 SCNN1A, Strata CC
[51] = hCV25603879 rs11542844 SCNN1A, Strata TC + TT

CC[C@H](C)C(=O)O[C@H]1C[C@H](O)C=C2C=C[C@H](C)[C@H](CC[C@@H](O)C[C@@H](O)CC(=O)O)[C@H]21 [pravastatin]
NONEVENT (Pravastatin arm) (hCV15851335 rs17610395 CPT1A, Strata CC): 1123 | EVENTS (Pravastatin arm) [1]: 21 | NONEVENT (Pravastatin arm) [1]: 164 | EVENTS (Pravastatin arm) [2]: 0 | NONEVENT (Pravastatin arm) [2]: 6 | EVENTS (Pravastatin arm) [3]: 20 | NONEVENT (Pravastatin arm) [3]: 132 | EVENTS (Pravastatin arm) [4]: 113 | NONEVENT (Pravastatin arm) [4]: 1150 | EVENTS (Pravastatin arm) [5]: 30 | NONEVENT (Pravastatin arm) [5]: 340 | EVENTS (Pravastatin arm) [6]: 35 | NONEVENT (Pravastatin arm) [6]: 261 | EVENTS (Pravastatin arm) [7]: 96 | NONEVENT (Pravastatin arm) [7]: 991 | EVENTS (Pravastatin arm) [8]: 13 | NONEVENT (Pravastatin arm) [8]: 103 | EVENTS (Pravastatin arm) [9]: 120 | NONEVENT (Pravastatin arm) [9]: 1188 | EVENTS (Pravastatin arm) [10]: 132 | NONEVENT (Pravastatin arm) [10]: 1247 | EVENTS (Pravastatin arm) [11]: 1 | NONEVENT (Pravastatin arm) [11]: 42 | EVENTS (Pravastatin arm) [12]: 124 | NONEVENT (Pravastatin arm) [12]: 1155 | EVENTS (Pravastatin arm) [13]: 8 | NONEVENT (Pravastatin arm) [13]: 132 | EVENTS (Pravastatin arm) [14]: 7 | NONEVENT (Pravastatin arm) [14]: 127 | EVENTS (Pravastatin arm) [15]: 126 | NONEVENT (Pravastatin arm) [15]: 1157 | EVENTS (Pravastatin arm) [16]: 104 | NONEVENT (Pravastatin arm) [16]: 1148 | EVENTS (Pravastatin arm) [17]: 28 | NONEVENT (Pravastatin arm) [17]: 140 | EVENTS (Pravastatin arm) [18]: 121 | NONEVENT (Pravastatin arm) [18]: 1140 | EVENTS (Pravastatin arm) [19]: 11 | NONEVENT (Pravastatin arm) [19]: 147 | EVENTS (Pravastatin arm) [20]: 18 | NONEVENT (Pravastatin arm) [20]: 126 | EVENTS (Pravastatin arm) [21]: 115 | NONEVENT (Pravastatin arm) [21]: 1164 | EVENTS (Pravastatin arm) [22]: 54 | NONEVENT (Pravastatin arm) [22]: 613 | EVENTS (Pravastatin arm) [23]: 77 | NONEVENT (Pravastatin arm) [23]: 670 | EVENTS (Pravastatin arm) [24]: 1 | NONEVENT (Pravastatin arm) [24]: 68 | EVENTS (Pravastatin arm) [25]: 132 | NONEVENT (Pravastatin arm) [25]: 1220 | EVENTS (Pravastatin arm) [26]: 70 | NONEVENT (Pravastatin arm) [26]: 555 | EVENTS (Pravastatin arm) [27]: 62 | NONEVENT (Pravastatin arm) [27]: 703 | EVENTS (Pravastatin arm) [28]: 37 | NONEVENT (Pravastatin arm) [28]: 248 | EVENTS (Pravastatin arm) [29]: 96 | NONEVENT (Pravastatin arm) [29]: 1043 | EVENTS (Pravastatin arm) [30]: 37 | NONEVENT (Pravastatin arm) [30]: 248 | EVENTS (Pravastatin arm) [31]: 96 | NONEVENT (Pravastatin arm) [31]: 1041 | EVENTS (Pravastatin arm) [32]: 6 | NONEVENT (Pravastatin arm) [32]: 108 | EVENTS (Pravastatin arm) [33]: 126 | NONEVENT (Pravastatin arm) [33]: 1175 | EVENTS (Pravastatin arm) [34]: 3 | NONEVENT (Pravastatin arm) [34]: 15 | EVENTS (Pravastatin arm) [35]: 129 | NONEVENT (Pravastatin arm) [35]: 1270 | EVENTS (Pravastatin arm) [36]: 124 | NONEVENT (Pravastatin arm) [36]: 1108 | EVENTS (Pravastatin arm) [37]: 8 | NONEVENT (Pravastatin arm) [37]: 154 | EVENTS (Pravastatin arm) [38]: 74 | NONEVENT (Pravastatin arm) [38]: 803 | EVENTS (Pravastatin arm) [39]: 59 | NONEVENT (Pravastatin arm) [39]: 484 | EVENTS (Pravastatin arm) [40]: 115 | NONEVENT (Pravastatin arm) [40]: 1165 | EVENTS (Pravastatin arm) [41]: 18 | NONEVENT (Pravastatin arm) [41]: 124 | EVENTS (Pravastatin arm) [42]: 7 | NONEVENT (Pravastatin arm) [42]: 25 | EVENTS (Pravastatin arm) [43]: 126 | NONEVENT (Pravastatin arm) [43]: 1266 | EVENTS (Pravastatin arm) [44]: 19 | NONEVENT (Pravastatin arm) [44]: 296 | EVENTS (Pravastatin arm) (hCV25591528 CD163, Strata GG): 114 | NONEVENT (Pravastatin arm) (hCV25591528 CD163, Strata GG): 994 | EVENTS (Pravastatin arm) [45]: 2 | NONEVENT (Pravastatin arm) [45]: 3 | EVENTS (Pravastatin arm) [46]: 12 | NONEVENT (Pravastatin arm) [46]: 136 | EVENTS (Pravastatin arm) [47]: 118 | NONEVENT (Pravastatin arm) [47]: 1150 | EVENTS (Pravastatin arm) [48]: 1 | NONEVENT (Pravastatin arm) [48]: 65 | EVENTS (Pravastatin arm) [49]: 132 | NONEVENT (Pravastatin arm) [49]: 1226 | EVENTS (Pravastatin arm) [50]: 122 | NONEVENT (Pravastatin arm) [50]: 1200 | EVENTS (Pravastatin arm) [51]: 11 | NONEVENT (Pravastatin arm) [51]: 89
